The list shows a part of the results.
Tests used:
Test in all cases: log2 fold change, soluble protein after heating vs DMSO (PISA); higher = thermal stabilisation; K562 lysate, 10 uM; active = over 0.2 and 3.5 SD of the protein, either way, in both replicates (recomputed)
[1] = compound: C#Cc1cccc(Nc2ncnc3cc(OCCOC)c(OCCOC)cc23)c1 [erlotinib]
Procedure, shortened: (§1)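 K562 pellets were dounce-homogenised in PBS pH 7.4 containing 1 mM MgCl2, and the crude extract, at 1 mg/mL protein, was exposed to 10 μM compound for 30 min. Aliquots were heated for 3 min across 48°C-58°C, pooled, brought to 0.5% NP-40 at 4°C and spun at 21,000xg for 90 min, with the supernatant taken as soluble protein. TMTpro 16plex LC-MS/MS with equalised channel sums quantified that protein. Values are log-two fold changes in thermal stability relative to solvent controls, taken from duplicates.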

Protein sequences, listed by entry. Tags and fused reporters are not part of them. Lines headed by an entry give the natural chain unless they say otherwise; changes in a name come on top.
UniProt Q9Y282: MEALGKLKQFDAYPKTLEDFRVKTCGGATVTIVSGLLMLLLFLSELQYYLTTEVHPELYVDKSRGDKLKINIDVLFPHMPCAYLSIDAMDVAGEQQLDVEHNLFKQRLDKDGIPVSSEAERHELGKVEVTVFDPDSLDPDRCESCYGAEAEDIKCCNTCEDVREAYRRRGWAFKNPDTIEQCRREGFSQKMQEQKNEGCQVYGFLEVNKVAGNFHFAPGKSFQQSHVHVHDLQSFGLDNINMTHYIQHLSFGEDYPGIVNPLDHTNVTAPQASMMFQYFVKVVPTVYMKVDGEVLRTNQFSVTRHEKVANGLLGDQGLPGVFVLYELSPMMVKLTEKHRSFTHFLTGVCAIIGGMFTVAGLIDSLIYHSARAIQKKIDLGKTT
UniProt P20042, whole entry, looked up: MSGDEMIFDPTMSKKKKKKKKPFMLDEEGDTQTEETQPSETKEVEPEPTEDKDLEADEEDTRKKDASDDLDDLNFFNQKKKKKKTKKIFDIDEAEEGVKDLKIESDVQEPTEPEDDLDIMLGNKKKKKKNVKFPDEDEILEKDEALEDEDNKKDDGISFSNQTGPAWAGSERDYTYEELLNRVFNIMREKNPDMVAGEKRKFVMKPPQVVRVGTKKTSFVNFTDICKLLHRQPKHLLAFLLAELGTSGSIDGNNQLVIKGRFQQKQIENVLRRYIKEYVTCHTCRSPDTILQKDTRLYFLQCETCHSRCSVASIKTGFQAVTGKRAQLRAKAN
UniProt P55010, whole entry, looked up: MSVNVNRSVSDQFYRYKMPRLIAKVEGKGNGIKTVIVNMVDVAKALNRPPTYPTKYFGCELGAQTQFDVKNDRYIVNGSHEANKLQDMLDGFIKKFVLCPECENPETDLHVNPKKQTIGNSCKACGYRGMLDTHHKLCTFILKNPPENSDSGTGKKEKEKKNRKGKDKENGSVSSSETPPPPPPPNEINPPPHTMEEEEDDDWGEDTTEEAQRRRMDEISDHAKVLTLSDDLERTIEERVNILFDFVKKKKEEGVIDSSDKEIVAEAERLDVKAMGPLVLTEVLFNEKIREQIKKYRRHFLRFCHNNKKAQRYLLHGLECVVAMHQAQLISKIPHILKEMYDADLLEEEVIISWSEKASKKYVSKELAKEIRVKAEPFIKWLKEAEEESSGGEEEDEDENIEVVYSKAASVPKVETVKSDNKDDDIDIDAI
UniProt O15371, whole entry, looked up: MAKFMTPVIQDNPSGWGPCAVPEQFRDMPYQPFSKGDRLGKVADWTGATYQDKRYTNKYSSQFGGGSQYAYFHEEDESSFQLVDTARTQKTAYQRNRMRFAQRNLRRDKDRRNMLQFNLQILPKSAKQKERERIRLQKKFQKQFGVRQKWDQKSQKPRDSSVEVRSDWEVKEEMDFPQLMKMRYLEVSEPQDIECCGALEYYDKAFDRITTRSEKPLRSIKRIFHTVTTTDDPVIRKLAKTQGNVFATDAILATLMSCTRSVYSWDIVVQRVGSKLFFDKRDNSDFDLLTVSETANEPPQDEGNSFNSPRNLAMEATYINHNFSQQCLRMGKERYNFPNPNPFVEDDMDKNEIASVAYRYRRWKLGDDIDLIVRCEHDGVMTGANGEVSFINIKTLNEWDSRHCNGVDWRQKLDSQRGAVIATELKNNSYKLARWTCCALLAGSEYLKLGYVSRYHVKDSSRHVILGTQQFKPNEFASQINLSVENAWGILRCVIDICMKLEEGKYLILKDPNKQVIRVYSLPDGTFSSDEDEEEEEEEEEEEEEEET
UniProt P06733, whole entry, looked up: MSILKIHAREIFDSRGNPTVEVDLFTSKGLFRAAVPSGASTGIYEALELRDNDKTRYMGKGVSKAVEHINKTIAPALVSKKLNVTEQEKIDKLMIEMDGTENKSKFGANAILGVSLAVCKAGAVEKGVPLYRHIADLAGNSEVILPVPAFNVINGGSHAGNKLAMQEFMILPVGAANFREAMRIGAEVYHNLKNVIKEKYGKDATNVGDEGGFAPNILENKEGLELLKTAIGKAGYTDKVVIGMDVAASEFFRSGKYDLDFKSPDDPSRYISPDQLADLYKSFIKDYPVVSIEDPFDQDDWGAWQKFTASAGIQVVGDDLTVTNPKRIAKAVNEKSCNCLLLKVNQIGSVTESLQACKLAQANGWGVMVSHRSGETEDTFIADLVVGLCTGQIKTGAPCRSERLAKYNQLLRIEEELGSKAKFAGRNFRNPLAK
UniProt P50402: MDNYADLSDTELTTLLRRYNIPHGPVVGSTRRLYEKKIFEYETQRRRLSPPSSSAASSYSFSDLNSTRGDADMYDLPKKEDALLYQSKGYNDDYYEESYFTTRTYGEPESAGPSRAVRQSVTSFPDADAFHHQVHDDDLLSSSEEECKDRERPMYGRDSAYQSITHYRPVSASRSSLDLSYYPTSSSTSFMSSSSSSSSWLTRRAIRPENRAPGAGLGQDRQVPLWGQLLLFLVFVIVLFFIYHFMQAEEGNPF
UniProt Q9BV81: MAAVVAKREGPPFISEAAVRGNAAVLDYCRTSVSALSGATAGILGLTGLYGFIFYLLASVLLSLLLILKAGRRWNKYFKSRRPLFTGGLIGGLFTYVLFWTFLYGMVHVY
UniProt Q9NZ08: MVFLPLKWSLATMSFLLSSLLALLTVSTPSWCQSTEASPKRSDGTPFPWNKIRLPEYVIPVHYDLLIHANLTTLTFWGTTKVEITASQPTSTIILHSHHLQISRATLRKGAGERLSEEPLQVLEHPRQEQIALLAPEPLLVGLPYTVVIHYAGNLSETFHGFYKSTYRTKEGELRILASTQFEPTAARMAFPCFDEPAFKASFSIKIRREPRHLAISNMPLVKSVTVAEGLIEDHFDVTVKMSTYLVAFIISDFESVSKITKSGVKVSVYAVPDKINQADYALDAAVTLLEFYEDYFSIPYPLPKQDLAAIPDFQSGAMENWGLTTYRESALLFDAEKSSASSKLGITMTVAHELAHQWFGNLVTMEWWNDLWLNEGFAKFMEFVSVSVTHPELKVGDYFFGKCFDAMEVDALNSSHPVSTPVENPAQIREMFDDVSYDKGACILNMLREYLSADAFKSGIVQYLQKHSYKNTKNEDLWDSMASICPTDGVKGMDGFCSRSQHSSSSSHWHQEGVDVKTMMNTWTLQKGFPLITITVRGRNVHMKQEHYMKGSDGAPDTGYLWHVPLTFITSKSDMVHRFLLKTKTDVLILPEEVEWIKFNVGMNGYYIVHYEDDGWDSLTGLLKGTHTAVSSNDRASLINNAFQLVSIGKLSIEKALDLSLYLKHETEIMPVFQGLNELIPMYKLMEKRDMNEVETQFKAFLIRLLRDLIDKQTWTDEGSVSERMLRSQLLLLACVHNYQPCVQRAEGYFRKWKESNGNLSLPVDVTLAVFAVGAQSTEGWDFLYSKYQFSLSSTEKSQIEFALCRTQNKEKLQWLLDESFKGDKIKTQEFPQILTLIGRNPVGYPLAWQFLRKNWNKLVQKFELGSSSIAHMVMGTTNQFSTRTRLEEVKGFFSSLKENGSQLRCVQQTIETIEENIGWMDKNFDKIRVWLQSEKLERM
UniProt P34913, whole entry, looked up: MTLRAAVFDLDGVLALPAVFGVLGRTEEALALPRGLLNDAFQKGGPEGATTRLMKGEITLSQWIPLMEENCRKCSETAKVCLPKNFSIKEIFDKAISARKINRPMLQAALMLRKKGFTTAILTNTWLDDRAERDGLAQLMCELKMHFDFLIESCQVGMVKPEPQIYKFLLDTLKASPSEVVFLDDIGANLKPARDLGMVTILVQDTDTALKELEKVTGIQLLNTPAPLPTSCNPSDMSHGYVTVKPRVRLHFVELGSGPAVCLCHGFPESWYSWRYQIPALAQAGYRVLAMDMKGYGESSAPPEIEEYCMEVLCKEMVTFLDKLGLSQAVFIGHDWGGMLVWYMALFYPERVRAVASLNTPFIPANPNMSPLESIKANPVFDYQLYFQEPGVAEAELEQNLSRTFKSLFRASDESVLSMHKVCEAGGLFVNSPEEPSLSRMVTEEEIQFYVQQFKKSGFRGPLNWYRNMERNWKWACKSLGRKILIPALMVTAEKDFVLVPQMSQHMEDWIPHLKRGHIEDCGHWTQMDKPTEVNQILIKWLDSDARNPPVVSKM
UniProt Q6IA86: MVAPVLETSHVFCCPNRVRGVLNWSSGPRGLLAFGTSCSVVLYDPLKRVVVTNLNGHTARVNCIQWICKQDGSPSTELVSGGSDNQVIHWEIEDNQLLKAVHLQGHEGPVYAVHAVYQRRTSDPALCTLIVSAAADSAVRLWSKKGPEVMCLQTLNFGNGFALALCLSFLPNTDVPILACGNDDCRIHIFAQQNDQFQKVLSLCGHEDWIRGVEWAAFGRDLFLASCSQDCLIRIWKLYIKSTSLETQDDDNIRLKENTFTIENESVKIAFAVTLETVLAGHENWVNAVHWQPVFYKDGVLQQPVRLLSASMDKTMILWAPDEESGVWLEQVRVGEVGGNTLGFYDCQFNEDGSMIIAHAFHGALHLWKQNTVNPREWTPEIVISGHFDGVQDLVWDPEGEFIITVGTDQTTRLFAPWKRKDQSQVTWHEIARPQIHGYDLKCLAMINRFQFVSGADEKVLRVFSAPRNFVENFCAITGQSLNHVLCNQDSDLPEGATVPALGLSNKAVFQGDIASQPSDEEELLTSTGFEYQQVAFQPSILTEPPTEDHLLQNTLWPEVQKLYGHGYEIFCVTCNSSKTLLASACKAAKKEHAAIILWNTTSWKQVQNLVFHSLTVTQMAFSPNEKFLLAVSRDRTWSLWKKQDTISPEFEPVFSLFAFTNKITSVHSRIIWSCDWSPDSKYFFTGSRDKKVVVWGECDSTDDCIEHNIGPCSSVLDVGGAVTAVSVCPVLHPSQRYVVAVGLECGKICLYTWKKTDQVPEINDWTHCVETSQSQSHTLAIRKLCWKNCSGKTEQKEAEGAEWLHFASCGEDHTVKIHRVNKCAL
UniProt Q9P2K8: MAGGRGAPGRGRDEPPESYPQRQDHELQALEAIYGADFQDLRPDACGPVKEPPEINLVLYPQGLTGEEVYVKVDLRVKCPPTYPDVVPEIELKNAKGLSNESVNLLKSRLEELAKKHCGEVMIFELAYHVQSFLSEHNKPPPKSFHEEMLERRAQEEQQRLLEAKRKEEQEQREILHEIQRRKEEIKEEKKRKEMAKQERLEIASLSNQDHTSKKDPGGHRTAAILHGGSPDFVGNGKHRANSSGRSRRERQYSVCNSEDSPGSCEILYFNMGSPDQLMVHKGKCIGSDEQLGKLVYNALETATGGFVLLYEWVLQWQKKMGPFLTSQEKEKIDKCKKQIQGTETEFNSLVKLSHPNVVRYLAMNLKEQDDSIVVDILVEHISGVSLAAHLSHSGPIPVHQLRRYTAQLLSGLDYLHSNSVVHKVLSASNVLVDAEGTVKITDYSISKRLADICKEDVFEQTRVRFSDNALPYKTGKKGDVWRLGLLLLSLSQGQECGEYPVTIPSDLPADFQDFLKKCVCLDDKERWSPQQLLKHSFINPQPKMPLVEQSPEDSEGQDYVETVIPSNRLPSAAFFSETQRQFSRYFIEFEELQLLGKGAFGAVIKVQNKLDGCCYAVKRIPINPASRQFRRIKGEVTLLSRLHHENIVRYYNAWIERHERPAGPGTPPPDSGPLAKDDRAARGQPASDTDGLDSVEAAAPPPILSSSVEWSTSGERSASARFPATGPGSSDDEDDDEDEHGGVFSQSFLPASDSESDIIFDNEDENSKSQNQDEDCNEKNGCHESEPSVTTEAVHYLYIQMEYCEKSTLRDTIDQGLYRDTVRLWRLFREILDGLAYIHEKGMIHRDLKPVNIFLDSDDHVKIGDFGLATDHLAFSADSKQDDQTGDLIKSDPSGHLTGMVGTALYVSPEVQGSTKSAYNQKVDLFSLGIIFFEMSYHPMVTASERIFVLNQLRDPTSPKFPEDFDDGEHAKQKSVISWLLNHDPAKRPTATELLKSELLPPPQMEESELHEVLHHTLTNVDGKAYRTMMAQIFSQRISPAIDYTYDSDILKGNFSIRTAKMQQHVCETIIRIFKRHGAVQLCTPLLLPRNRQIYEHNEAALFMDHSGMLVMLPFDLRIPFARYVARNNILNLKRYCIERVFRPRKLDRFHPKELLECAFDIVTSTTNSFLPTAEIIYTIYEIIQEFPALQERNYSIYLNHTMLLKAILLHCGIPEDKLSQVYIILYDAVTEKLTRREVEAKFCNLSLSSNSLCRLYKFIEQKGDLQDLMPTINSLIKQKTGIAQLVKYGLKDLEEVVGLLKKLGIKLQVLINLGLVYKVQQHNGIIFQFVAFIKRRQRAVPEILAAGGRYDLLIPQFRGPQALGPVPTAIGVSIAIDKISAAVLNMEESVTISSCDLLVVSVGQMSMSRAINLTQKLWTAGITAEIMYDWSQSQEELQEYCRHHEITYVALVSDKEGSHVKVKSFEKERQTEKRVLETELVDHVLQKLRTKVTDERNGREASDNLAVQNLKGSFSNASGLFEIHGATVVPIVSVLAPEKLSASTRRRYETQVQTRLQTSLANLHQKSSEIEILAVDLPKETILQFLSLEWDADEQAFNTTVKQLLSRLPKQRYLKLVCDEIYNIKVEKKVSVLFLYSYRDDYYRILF

[2] = compound: C/C(=N\NC(=O)C1=CC(=CC=C1)S(=O)(=O)N2CCOCC2)/C3=C(C=CC(=C3)Cl)O
Procedure, shortened: as §1

[3] = compound: C1=CC(=CC=C1C2=NC3=C(N2)C=C(C=C3)C(=O)N)OC4=CC=C(C=C4)Cl
Procedure, shortened: as §1

[4] = compound: C1=CC2=C(C=CC(=C2)/C=C\3/C(=O)NC(=NCC4=CC=CS4)S3)N=C1
Procedure, shortened: as §1

[5] = compound: C1=CC2=NC=CN=C2C=C1/C=C/3\C(=O)NC(=O)S3
Procedure, shortened: as §1

[6] = compound: C1=CC=C(C=C1)C2=NC(=C(N2)C3=CC=NC=C3)C4=CC(=C(C=C4)Cl)O
Procedure, shortened: as §1

[7] = compound: C1=CC=C2C(=C1)C3=NNC4=CC=CC(=C43)C2=O
Procedure, shortened: as §1

[8] = compound: C1CCN(C1)C(=O)NC2=CC=CC(=C2)NC3=NC=C(C(=N3)NCCC4=CN=CN4)Br
Procedure, shortened: as §1

[9] = compound: C1CN(CCC1(CC2=CC=C(C=C2)Cl)N)C3=NC=NC4=C3C=CN4
Procedure, shortened: as §1

[10] = compound: C1COCCN1CCN2C3=CC=CC=C3N=C2NC(=O)C4=CC(=CC=C4)[N+](=O)[O-] [IRAK-1-4 Inhibitor I]
Procedure, shortened: as §1

[11] = compound: C=CC(=O)N1CCC[C@@H](n2nc(-c3ccc(Oc4ccccc4)cc3)c3c(N)ncnc32)C1 [ibrutinib]
Procedure, shortened: as §1

[12] = compound: CC(=O)c1cnc2ccc(-c3cc(Cl)c(O)c(Cl)c3)nc2c1N[C@H]1CC[C@H](CN(C)C)CC1
Procedure, shortened: as §1

[13] = compound: CC(C)(C)Cn1c(N)nc2ccc(-c3[nH]c(C(C)(C)C)nc3-c3ccc(F)cc3)nc21 [ralimetinib]
Procedure, shortened: as §1

[14] = compound: CC(C)(O)CC(=O)NCCn1ccc2ncnc(Nc3ccc(Oc4cccc(C(F)(F)F)c4)c(Cl)c3)c21
Procedure, shortened: as §1

[15] = compound: CC(C)C1=C2N=C(C=C(N2N=C1)NCC3=CC=CC=C3)NCCCCCCN
Procedure, shortened: as §1

[16] = compound: CC1=C(C(CC(=O)N1)C2=CC=C(C=C2)C(F)(F)F)C(=O)NC3=C(C=C4C(=C3)C=NN4)F
Procedure, shortened: as §1

[17] = compound: CC1=C(C2=C(C=C1)C(=O)C3=CC=CC=C3N2CCCN)C
Procedure, shortened: as §1

[18] = compound: CC1=C(C=C(C=C1)NC(=O)C2=CC(=CC=C2)C(C)(C)C#N)NC3=CC4=C(C=C3)N=CN(C4=O)C
Procedure, shortened: as §1

[19] = compound: CC1=C(C=C(C=C1)NC(=O)C2=CC(=CC=C2)N(C)C)NC(=O)C3=CC=C(C=C3)O
Procedure, shortened: as §1

[20] = compound: CC1=CC=C(C=C1)SC2=C3C=C(SC3=CN=C2)C(=O)N
Procedure, shortened: as §1

Measured: log2 fold change

ERGIC3 isoform 3 (UniProt Q9Y282)
inactive: [1] -0.005 | [2] 0.046 | [3] -0.055 | [4] -0.026 | [5] 0.04 | [6] -0.012 | [7] -0.062 | [8] 0.1 | [9] 0.019 | [10] -0.028 | [11] -0.03 | [12] -0.01 | [13] -0.024 | [14] -0.074 | [15] 0.016 | [16] 0.05 | [17] 0.101 | [18] -0.026 | [19] 0.03 | [20] -0.013

EPPK1 (UniProt P58107)
inactive: [1] 0.022 | [2] 0.012 | [3] -0.012 | [4] -0.003 | [5] 0 | [6] -0.01 | [7] -0.002 | [8] -0.012 | [9] 0.008 | [10] -0.06 | [11] -0.007 | [12] -0.049 | [13] 0.038 | [14] 0.013 | [15] 0.022 | [16] -0.012 | [17] 0.012 | [18] -0.026 | [19] 0.061 | [20] -0.043

EPN1 (UniProt Q9Y6I3)
inactive: [1] -0.001 | [2] 0.014 | [3] 0.022 | [4] -0.005 | [5] 0.001 | [6] 0.024 | [7] 0.004 | [8] 0 | [9] 0.018 | [10] 0.005 | [11] 0.026 | [12] 0.037 | [13] -0.014 | [14] 0.012 | [15] -0.018 | [16] -0.029 | [17] -0.012 | [18] -0.021 | [19] 0 | [20] -0.011

ELOB (UniProt Q15370)
inactive: [1] -0.008 | [2] 0.019 | [3] -0.011 | [4] 0.021 | [5] -0.048 | [6] -0.023 | [7] -0.006 | [8] -0.007 | [9] 0.039 | [10] -0.03 | [11] 0 | [12] -0.029 | [13] -0.004 | [14] -0.053 | [15] 0.024 | [16] -0.084 | [17] 0.019 | [18] 0.006 | [19] 0.005 | [20] 0.001

EPRS (UniProt P07814)
inactive: [1] 0.028 | [2] 0.032 | [3] -0.007 | [4] 0.01 | [5] 0.014 | [6] 0.017 | [7] -0.026 | [8] 0 | [9] -0.004 | [10] -0.006 | [11] -0.018 | [12] 0.002 | [13] 0.01 | [14] 0.026 | [15] 0.02 | [16] -0.014 | [17] 0.02 | [18] -0.004 | [19] 0.046 | [20] 0.019

EIF2S2 (UniProt P20042)
inactive: [1] -0.021 | [2] -0.048 | [3] 0.019 | [4] -0.003 | [5] -0.019 | [6] 0.015 | [7] -0.027 | [8] 0.007 | [9] 0.019 | [10] -0.008 | [11] -0.023 | [12] -0.011 | [13] -0.018 | [14] -0.015 | [15] 0.007 | [16] -0.012 | [17] -0.011 | [18] 0.007 | [19] 0.01 | [20] 0.001

EIF5 (UniProt P55010)
inactive: [1] -0.002 | [2] -0.029 | [3] -0.003 | [4] -0.033 | [5] 0.01 | [6] -0.014 | [7] 0.026 | [8] 0.011 | [9] -0.012 | [10] 0.004 | [11] 0.002 | [12] 0.002 | [13] 0.015 | [14] 0.003 | [15] -0.016 | [16] -0.027 | [17] 0.02 | [18] 0.011 | [19] -0.01 | [20] 0.007

EIF3D (UniProt O15371)
inactive: [1] -0.008 | [2] 0.057 | [3] -0.046 | [4] -0.008 | [5] 0.03 | [6] -0.014 | [7] -0.028 | [8] -0.006 | [9] 0.031 | [10] -0.027 | [11] -0.013 | [12] -0.005 | [13] 0.013 | [14] 0.013 | [15] 0.029 | [16] -0.016 | [17] 0.02 | [18] -0.016 | [19] 0.035 | [20] 0.012

ENO1 isoform 2 (UniProt P06733)
inactive: [1] -0.02 | [2] -0.039 | [3] -0.035 | [4] -0.021 | [5] -0.016 | [6] -0.003 | [7] -0.066 | [8] -0.033 | [9] 0.027 | [10] 0.015 | [11] -0.043 | [12] 0.008 | [13] 0.02 | [14] -0.07 | [15] 0.028 | [16] -0.009 | [17] -0.013 | [18] 0.023 | [19] -0.002 | [20] -0.015

EMD (UniProt P50402)
inactive: [1] -0.027 | [2] 0.035 | [3] -0.009 | [4] -0.023 | [5] -0.053 | [6] -0.047 | [7] -0.079 | [8] -0.004 | [9] -0.028 | [10] -0.066 | [11] 0.012 | [12] -0.002 | [13] 0.041 | [14] 0.042 | [15] -0.025 | [16] -0.032 | [17] -0.026 | [18] 0.022 | [19] 0 | [20] 0.037

EMC6 (UniProt Q9BV81)
inactive: [1] -0.004 | [2] -0.056 | [3] -0.076 | [4] 0.003 | [5] 0.054 | [6] -0.011 | [7] -0.029 | [8] 0.017 | [9] 0.071 | [10] 0.095 | [11] 0.01 | [12] 0.036 | [13] -0.069 | [14] 0.006 | [15] 0.016 | [16] 0.094 | [17] -0.089 | [18] 0.017 | [19] 0.189 | [20] 0.033

ERAP1 isoform 2 (UniProt Q9NZ08)
inactive: [1] 0.003 | [2] -0.017 | [3] 0.003 | [4] -0.007 | [5] -0.007 | [6] 0.002 | [7] -0.005 | [8] -0.017 | [9] 0.012 | [10] 0.011 | [11] -0.004 | [12] 0.003 | [13] 0.001 | [14] -0.001 | [15] -0.011 | [16] 0.025 | [17] -0.015 | [18] 0 | [19] 0.009 | [20] 0.001

EIF2B1 (UniProt Q14232)
inactive: [1] 0.011 | [2] 0.007 | [3] -0.005 | [4] 0.007 | [5] 0.024 | [6] 0.007 | [7] 0.012 | [8] 0.028 | [9] -0.001 | [10] -0.006 | [11] 0 | [12] 0.014 | [13] -0.002 | [14] -0.006 | [15] -0.013 | [16] -0.011 | [17] 0.015 | [18] -0.002 | [19] -0.005 | [20] 0.001

EPHX2 (UniProt P34913)
inactive: [1] -0.024 | [2] 0.133 | [3] 0.156 | [4] 0.036 | [5] -0.023 | [6] -0.014 | [7] 0.014 | [8] 0.077 | [9] -0.002 | [10] -0.014 | [11] 0.051 | [12] -0.002 | [13] -0.001 | [14] -0.02 | [15] 0.099 | [16] 0.004 | [17] -0.006 | [18] 0.11 | [19] 0.06 | [20] 0.051

ELP2 isoform 6 (UniProt Q6IA86)
inactive: [1] 0.013 | [2] 0.008 | [3] 0.004 | [4] 0.002 | [5] -0.007 | [6] 0.004 | [7] -0.008 | [8] -0.01 | [9] -0.008 | [10] 0.017 | [11] 0.015 | [12] 0.006 | [13] 0.019 | [14] 0 | [15] -0.028 | [16] -0.005 | [17] -0.016 | [18] 0.005 | [19] -0.012 | [20] 0.007

Quoted at random: 2 entries already listed.
EPN1 (UniProt Q9Y6I3)
inactive: [1] -0.001 | [2] 0.014 | [3] 0.022 | [4] -0.005 | [5] 0.001 | [6] 0.024 | [7] 0.004 | [8] 0 | [9] 0.018 | [10] 0.005 | [11] 0.026 | [12] 0.037 | [13] -0.014 | [14] 0.012 | [15] -0.018 | [16] -0.029 | [17] -0.012 | [18] -0.021 | [19] 0 | [20] -0.011

ENO1 isoform 2 (UniProt P06733)
inactive: [1] -0.02 | [2] -0.039 | [3] -0.035 | [4] -0.021 | [5] -0.016 | [6] -0.003 | [7] -0.066 | [8] -0.033 | [9] 0.027 | [10] 0.015 | [11] -0.043 | [12] 0.008 | [13] 0.02 | [14] -0.07 | [15] 0.028 | [16] -0.009 | [17] -0.013 | [18] 0.023 | [19] -0.002 | [20] -0.015

Next part:

EIF2AK4 (UniProt Q9P2K8)
inactive: [1] -0.029 | [2] 0.018 | [3] 0.017 | [4] 0.001 | [5] -0.014 | [6] 0.007 | [7] -0.026 | [8] 0.009 | [9] 0.016 | [10] -0.002 | [11] 0.026 | [12] -0.053 | [13] 0.042 | [14] -0.032 | [15] 0.023 | [16] -0.005 | [17] -0.063 | [18] -0.003 | [19] -0.007 | [20] -0.021

— the supplement of paper PMC10849652
